# Measurements taken from PubChem BioAssay AID504444 (National Center for Advancing Translational Sciences (NCATS), 2011).
# “And” between values parts separate entries of the source, which are not always exact repeats. Equal entries are not always repeated. Out of some 360,000 compounds screened, about 7,500 (2.1%) were called active. The inconclusive results got no clear call from the source; some entries with a clear call stand among them for comparison. Calls come from the whole dose curve; as a rule, active = well fitted inhibition curve with a large enough effect; inconclusive = small, poorly fitted or top-dose-only effect, or effect the other way; inactive = flat fitted curve, though single readings scatter. Where the call is inconclusive, the potency comes from a doubtful curve fit.
# Test: Nrf2 qHTS screen for inhibitors; note: nearly all actives have a fitted effect of over 60% in size
# Settings: A549 ARE-Fluc reporter, luciferase luminescence, 18-24 h; series mostly up to 46 µM
# Method in brief: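 Nrf2 function is reported as luminescence of an ARE-controlled luciferase in A549 cells. Compounds were tested at several concentrations, and a CellTiter-Fluor read on the same wells flagged cytotoxicity.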
# Potency is the fitted concentration of half-maximal effect.
row,SMILES,Potency
1,N#C/C(=C/c1cn(-c2ccccc2)nc1-c1cccc(OCc2ccccc2)c1)C(=O)NCCCn1ccnc1,"inconclusive: 32.6 µM [falling, single point]"
2,Cc1ccc(OCc2nc(-c3ccccn3)no2)c(Br)c1,"inconclusive: 0.731 µM [activator, full curve, poor fit]"
3,O=C(NCCNCCO)C1(C(F)(F)F)CC(CCc2ccccc2)CCCO1 (centres undefined),inactive
4,Cc1noc(-c2ccccc2)c1NC(=O)Nc1ccc(Cl)cc1,"inconclusive: 14.6 µM [falling, partial curve, poor fit]"
5,COc1ccc(-c2cc(C)no2)cc1S(=O)(=O)NCc1ccco1,"inconclusive: 29.1 µM [activator, single point]"
6,Cc1ccc(NS(=O)(=O)c2ccc(C(=O)N3CC(C)CC(C)C3)cc2)cc1 (centres undefined),"inconclusive: 23.1 µM [falling, single point]"
7,CC(=C1C(=O)c2ccccc2C1=O)N1CCN(Cc2ccccc2)CC1,"inconclusive: 32.6 µM [falling, partial curve, poor fit]"
8,CC(=O)NCCn1c(SCC(=O)NC2CCCCC2)nc2ccccc2c1=O,inactive
9,CCOC(=O)c1c(-c2ccc(C)cc2)csc1NC(=O)c1cc(=O)c2cc(C)cc(C)c2o1,"inconclusive: 5.8 µM [activator, full curve, poor fit]"
10,O=C(Nc1cccc(C(F)(F)F)c1)c1cccnn1,"inconclusive: 1.3 µM [activator, full curve, poor fit]"
11,Cc1cc(C)n(-c2nnc(SCC(=O)NC3CCCC3)c3ccccc23)n1,"inconclusive: 23.1 µM [falling, single point]"
12,COc1cc(NC(=O)c2c3c(nc4ccccc24)C(=O)N(C2CCCCC2)C3)cc(OC)c1,"inconclusive: 29.1 µM [activator, single point]"
13,O=C(CSc1c2c(nc3cc(Cl)ccc13)CCCC2)N1CCN(c2ccccc2)CC1,"inconclusive: 29.1 µM [falling, single point]"
14,COCCCn1c(SCC(=O)O)nc2cc(OC)c(OC)cc2c1=N,"inconclusive: 29.1 µM [activator, single point]"
15,CC(C)S(=O)(=O)c1csc(C(=O)Nc2ccc(F)cc2)c1N,"inconclusive: 2.06 µM [activator, full curve]"
16,CC1CCN(C(=O)Cn2cc(SCC(=O)Nc3ccccc3)c3ccccc32)CC1,"inconclusive: 18.4 µM [activator, partial curve, poor fit]"
17,Clc1ccc(-c2cc3ccccc3[nH]2)cc1,"inconclusive: 5.17 µM [activator, full curve]"
18,CCc1ccccc1N1C(=O)C2CC=CCC2C1=O (centres undefined),"inconclusive: 13 µM [activator, single point]"
19,CCN(CC(=O)Nc1cc(Cl)ccc1C)C(=O)C1COc2ccccc2O1 (centres undefined),inactive
20,Cc1cc(=O)nc2c3ccccc3n(CC(=O)NCCC3=CCCCC3)n12,"inconclusive: 13 µM [activator, partial curve, poor fit]"
21,CCOC(=O)c1noc2ncnc(N3CCN(c4cccc(C(F)(F)F)c4)CC3)c12,"inconclusive: 8.2 µM [falling, single point]"
22,CC1(C)C=Cc2cc(-c3coc4cc(O)cc(O)c4c3=O)cc(O)c2O1,inactive

# Rewritten with tabs: four of the compounds above
row	SMILES	Potency
3	O=C(NCCNCCO)C1(C(F)(F)F)CC(CCc2ccccc2)CCCO1 (centres undefined)	inactive
5	COc1ccc(-c2cc(C)no2)cc1S(=O)(=O)NCc1ccco1	inconclusive: 29.1 µM [activator, single point]
6	Cc1ccc(NS(=O)(=O)c2ccc(C(=O)N3CC(C)CC(C)C3)cc2)cc1 (centres undefined)	inconclusive: 23.1 µM [falling, single point]
10	O=C(Nc1cccc(C(F)(F)F)c1)c1cccnn1	inconclusive: 1.3 µM [activator, full curve, poor fit]

# Later entries.

row,SMILES,Potency
1,O=c1c2c3c(sc2ncn1/N=C/c1ccc([N+](=O)[O-])o1)CCCC3,"inconclusive: 4.11 µM [falling, partial curve, poor fit]"
2,CC(=O)c1cc(NC(=O)c2cccc(C(F)(F)F)c2)c(=O)oc1C,"inconclusive: 32.6 µM [falling, single point]"
3,CCOc1ccc2nc(NC(=O)c3cnc(C)cn3)sc2c1,"inconclusive: 29.1 µM [falling, single point]"
4,c1ccc(-c2n[nH]c(-c3ccccn3)n2)nc1,"inconclusive: 2.91 µM [activator, full curve] and inconclusive: 1.16 µM [activator, full curve, poor fit]"
5,O=C(NCc1ccccc1)c1ccc(S(=O)(=O)Nc2cccc(C(F)(F)F)c2)cc1,"inconclusive: 18.4 µM [falling, single point]"
6,O=C1c2ccccc2C(=O)N1CCCCSc1nnc(-c2ccc(OC(F)F)cc2)o1,"inconclusive: 14.6 µM [falling, partial curve, poor fit]"
7,Cc1nc2oc3ccc(F)cc3c(=O)c2cc1C(=O)NC(C)(C)C,"inconclusive: 3.66 µM [activator, full curve, poor fit]"
8,COc1ccc(Cn2ccn(Cc3cccc(Cl)c3)c(=O)c2=O)cc1,"inconclusive: 1.3 µM [activator, partial curve, poor fit]"
9,O=C(Cn1nc(-c2ccccc2Cl)ccc1=O)Nc1ccccc1-c1ccccc1,inactive
10,COc1ccc(C(=O)NCCn2cc(SCC(N)=O)c3ccccc32)cc1,"inconclusive: 32.6 µM [falling, single point]"
11,Cc1cccc(-c2noc(CCCC(=O)NC3CCCC3)n2)c1,active: 9.2 µM
12,CCN(CC)C(=O)OCc1c(-c2cccc(OC)c2)ncc2ccccc12,"inconclusive: 10.3 µM [falling, partial curve]"
13,CCOC(=O)c1ccc(Nc2c(CC)c(C)nc3ncnn23)cc1,active: 25.9 µM
14,CCOc1cc(/C=C2\SC(=NC)N(C)C2=O)cc(Cl)c1OC(C)=O,"inconclusive: 23.1 µM [falling, partial curve, poor fit]"
15,CCn1nc(C(=O)NCCc2ccc3c(c2)OCCO3)c2ccccc2c1=O,"inconclusive: 16.4 µM [falling, partial curve, poor fit]"
16,O=C(Nc1ccc(OC(F)(F)F)cc1)c1ccc(-n2cncn2)nc1,"inconclusive: 8.2 µM [falling, partial curve, poor fit]"
17,CCOC(=O)C=C1CCN(c2ncc(C(F)(F)F)cc2Cl)CC1,"inconclusive: 0.58 µM [falling, partial curve, poor fit]"
18,CCCn1cc(S(=O)(=O)c2ccc(OC)cc2)c(=O)c2cc(F)c(N3CCCC(C)C3)cc21 (centres undefined),"inconclusive: 29.1 µM [falling, single point]"
19,CC(=O)c1ccc(NC(=O)C2=CC(c3ccc(C)cc3)=NS(=O)(=O)N2C)cc1,"inconclusive: 29.1 µM [falling, single point]"
20,COc1ccc(C)cc1NC(=O)COCc1cc(-c2ccc(F)cc2)on1,inactive
21,CC(C)n1c(SCC(=O)Nc2nc3c(s2)CCCC3)nc2c1c(=O)n(C)c(=O)n2C,active: 23.1 µM
22,O=Cc1ccc(Oc2cc(-c3ccccc3)nc(-c3ccccc3)n2)cc1,"inconclusive: 0.058 µM [falling, full curve]"

row,SMILES,Potency
1,CC(C)(C)C(=O)OCc1cc(=O)n2nc(C3CC3)sc2n1,"inconclusive: 23.1 µM [activator, partial curve]"
2,Cc1oncc1-c1csc(-c2ccccc2Cl)n1,"inconclusive: 29.1 µM [activator, single point]"
3,N/C(=N\OC(=O)/C=C/c1ccccc1)c1ccccc1,"inconclusive: 16.4 µM [activator, partial curve]"
4,CC1CCCCC1N(C)C1CCN(C(=O)CNC(=O)/C=C/c2cccc(Cl)c2)CC1 (centres undefined),"inconclusive: 6.51 µM [activator, partial curve, poor fit]"
5,CS(=O)(=O)c1nc([N+](=O)[O-])nn1CCCc1ccccc1,"inconclusive: 29.1 µM [falling, single point]"
6,CN(CC(=O)Nc1c(Cl)cccc1Cl)C(=O)c1cc(-c2cccs2)nn1-c1ccccc1,inactive
7,O=C(N/N=C/c1cn(-c2ccccc2)nc1-c1cc2ccccc2o1)c1ccncc1,"inconclusive: 16.4 µM [activator, partial curve]"
8,O=C(O)c1cc(-c2ccc3c(c2)OCO3)nc2ccc(Br)cc12,"inconclusive: 9.2 µM [activator, partial curve]"
9,CCCN(CCC)c1nn2c(=O)c(C(=O)NCc3cc(Br)ccc3OC)cnc2s1,"inconclusive: 29.1 µM [falling, single point]"
10,COc1ccc(S(=O)(=O)N2CCOCC2)cc1NC(=O)Cc1c(F)cccc1Cl,inactive
11,COc1cc(Cl)c(C)cc1NC(=O)Cn1cc(S(=O)(=O)N2CCC(C)CC2)c2ccccc2c1=O,inactive
12,CC(=O)NC(c1ccc(C(C)C)cc1)c1ccc2cccnc2c1O (centres undefined),inactive
13,Cc1ccc(S(=O)(=O)N2CCOCC2)cc1NC(=O)CNCc1ccccc1Cl,"inconclusive: 29.1 µM [falling, single point]"
14,CN(C)c1ccc(/C=c2\sc3n(c2=O)CCCN=3)cc1,"inconclusive: 1.16 µM [activator, partial curve]"
15,CCCCN(Cc1nc2ccccc2c(=O)[nH]1)C(=O)c1nn(C)c(=O)c2ccccc12,"inconclusive: 13 µM [falling, partial curve, poor fit]"
16,CCOc1ccc(-c2nnn(CC(=O)c3cc(OC)ccc3OC)n2)cc1,"inconclusive: 16.4 µM [falling, partial curve, poor fit]"
17,CC(C)OC(=O)c1cc2c(ccn2C)n1CC(=O)N(Cc1ccccc1)c1ccc(F)cc1,"inconclusive: 29.1 µM [falling, single point]"
18,COC(=O)c1c(C)[nH]c(C(=O)/C=C/c2ccc(C)cc2)c1C,active: 2.59 µM
19,CNC(=O)c1sc(-c2ccccc2)nc1C,"inconclusive: 20.6 µM [activator, partial curve, poor fit]"
20,O=C(Nc1nc2c(s1)C(=O)CCC2)c1ccccc1,"inconclusive: 1.16 µM [activator, partial curve]"
